According to article PMC9674349:
No constants are given. Whether binding was seen depends on the method and setting. Binding seen in cells or lysates may run through a third protein. These calls come from enrichment with a bait or labelling near it, and not all partners need be listed.

Legend:
[1] = biological target: T1, gephyrin, native, in mouse brain (mouse (endogenous in brain)) (UniProt Q8BUV3); experiment: affinity purification with mass spectrometry; native gephyrin complexes precipitated from mouse cortex and hippocampus lysate with DARPin-hFc 27B3, 27F3, 27G2 or antibody 3B11 on Protein G magnetic beads; LC-MS/MS; against control DARPin-hFc E3_5 or control IgG
T1 sequence: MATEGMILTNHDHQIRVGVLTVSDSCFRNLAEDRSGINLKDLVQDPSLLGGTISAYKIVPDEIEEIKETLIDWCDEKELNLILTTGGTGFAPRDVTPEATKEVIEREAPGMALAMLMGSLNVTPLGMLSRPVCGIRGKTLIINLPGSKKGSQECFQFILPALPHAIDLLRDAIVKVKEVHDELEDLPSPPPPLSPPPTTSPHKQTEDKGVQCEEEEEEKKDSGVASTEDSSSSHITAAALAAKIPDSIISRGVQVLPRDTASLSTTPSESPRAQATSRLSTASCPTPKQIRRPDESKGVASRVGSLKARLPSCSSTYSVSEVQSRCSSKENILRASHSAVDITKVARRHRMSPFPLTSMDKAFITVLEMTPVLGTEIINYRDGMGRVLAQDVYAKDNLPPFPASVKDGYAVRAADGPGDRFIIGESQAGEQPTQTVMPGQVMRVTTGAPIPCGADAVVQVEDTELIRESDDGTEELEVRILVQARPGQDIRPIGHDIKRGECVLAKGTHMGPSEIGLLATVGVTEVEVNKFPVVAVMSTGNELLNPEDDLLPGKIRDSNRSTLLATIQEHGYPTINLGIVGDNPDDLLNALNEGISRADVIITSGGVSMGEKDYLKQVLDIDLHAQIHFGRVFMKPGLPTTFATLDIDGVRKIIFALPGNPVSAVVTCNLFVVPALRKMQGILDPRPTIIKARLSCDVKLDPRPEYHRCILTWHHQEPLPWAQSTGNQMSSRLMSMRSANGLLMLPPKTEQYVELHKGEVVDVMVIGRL

[2] = biological target: T2, gephyrin, native, in mouse brain (mouse (endogenous in brain)), Q8BUV3; experiment: as above; conditions: remark: other sources report otherwise
T2 chain: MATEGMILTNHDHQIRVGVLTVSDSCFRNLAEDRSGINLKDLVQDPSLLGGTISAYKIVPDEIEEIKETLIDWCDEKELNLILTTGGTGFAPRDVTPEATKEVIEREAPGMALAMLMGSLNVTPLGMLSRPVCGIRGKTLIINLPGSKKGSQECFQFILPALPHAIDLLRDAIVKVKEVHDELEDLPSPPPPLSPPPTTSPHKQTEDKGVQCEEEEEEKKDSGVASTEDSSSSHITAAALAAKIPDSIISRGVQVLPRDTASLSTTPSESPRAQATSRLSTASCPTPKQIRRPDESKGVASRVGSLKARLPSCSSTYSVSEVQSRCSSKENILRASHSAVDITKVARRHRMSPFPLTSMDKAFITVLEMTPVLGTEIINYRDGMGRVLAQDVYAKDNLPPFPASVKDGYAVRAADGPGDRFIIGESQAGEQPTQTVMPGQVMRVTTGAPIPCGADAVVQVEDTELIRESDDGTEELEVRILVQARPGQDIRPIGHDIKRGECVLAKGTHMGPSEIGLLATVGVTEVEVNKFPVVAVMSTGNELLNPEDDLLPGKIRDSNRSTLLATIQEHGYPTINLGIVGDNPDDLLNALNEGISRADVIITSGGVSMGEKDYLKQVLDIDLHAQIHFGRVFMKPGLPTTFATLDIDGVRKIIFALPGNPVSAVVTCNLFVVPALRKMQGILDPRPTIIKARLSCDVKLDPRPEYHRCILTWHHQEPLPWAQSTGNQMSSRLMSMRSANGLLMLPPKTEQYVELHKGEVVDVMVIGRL

B1: collybistin (protein, UniProt Q3UTH8 1-516)
chain: MYDLITGDSIVSAEAVWDHVTMANRELAFKAGDVIKVLDASNKDWWWGQIDDEEGWFPASFVRLWVNQEDGVEEGPSDVQNGHLDPNSDCLCLGRPLQNRDQMRANVINEIMSTERHYIKHLKDICEGYLKQCRKRRDMFSDEQLKVIFGNIEDIYRFQMGFVRDLEKQYNNDDPHLSEIGPCFLEHQDGFWIYSEYCNNHLDACMELSKLMKDSRYQHFFEACRLLQQMIDIAIDGFLLTPVQKICKYPLQLAELLKYTAQDHSDYRYVAAALAVMRNVTQQINERKRRLENIDKIAQWQASVLDWEGEDILDRSSELIYTGEMAWIYQPYGRNQQRVFFLFDHQMVLCKKDLIRRDILYYKGRIDMDKYEVIDIEDGRDDDFNVSMKNAFKLHNKETEEVHLFFAKKLEEKIRWLRAFREERKMVQEDEKIGFEISENQKRQAAMTVRKASKQKGVNSARSVPPSYPPPQDPLNQGQYLVPDGIAQSQVFEFTEPKRSQSPFWQNFSRLTPFKK
[1]
  binding: binds

B2: GABAA receptor subunit GBRA1, P62812 28-455 (protein)
chain: QPSQDELKDNTTVFTRILDRLLDGYDNRLRPGLGERVTEVKTDIFVTSFGPVSDHDMEYTIDVFFRQSWKDERLKFKGPMTVLRLNNLMASKIWTPDTFFHNGKKSVAHNMTMPNKLLRITEDGTLLYTMRLTVRAECPMHLEDFPMDAHACPLKFGSYAYTRAEVVYEWTREPARSVVVAEDGSRLNQYDLLGQTVDSGIVQSSTGEYVVMTTHFHLKRKIGYFVIQTYLPCIMTVILSQVSFWLNRESVPARTVFGVTTVLTMTTLSISARNSLPKVAYATAMDWFIAVCYAFVFSALIEFATVNYFTKRGYAWDGKSVVPEKPKKVKDPLIKKNNTYAPTATSYTPNLARGDPGLATIAKSATIEPKEVKPETKPPEPKKTFNSVSKIDRLSRIAFPLLFGIFNLVYWATYLNREPQLKAPTPHQ
[2]
  binding: binds

B3: IQSEC3 (protein, UniProt Q3TES0 1-1195)
chain: MESLLENPVRAVLYLKELTAIVQNQQSLIHTQRQRIDELERRLDELSAENRSLWEHQQLLQAQPPPGLVPPPPSAPLPAPAVTAPAAAAAQEPLQDHGQLIPASPEPPLQHHGQLLAQPQPAPSSRVQTPQSPHQHPVAPGAIADKEKERPSSCCAAAGALLQHASPAALGKGVLSRRPENETVLHQFCCPAADTEQKPACSDLASQSDGSCAQAGGGMEDSVVAAVAAGRPSAHAPKAQAPELQQEEERPGAVGSPRAGPLRAASPGRQQPALATALCSHTPAASEYELSLDLKNKQIEMLEHKYGGHLVSRRAACTIQTAFRQYQLSKNFEKIRNSLLESRLPRRISLRKVRAPTAESLVAEKALLEGCGLLGLPLGRSPSLPPTFAGSLTELEDSFTEQVQSLAKSIDDALSTWSLKTMCSLQESGAYQLHQALHPSAGQPGLETEAAAREPESGPGSGDEAGGLPQGHSGTLMMAFRDVTVQIANQNISVSSSTALSVANCLGAQTAQATAEPAAAQAEQEDTADQEVSEVPASEQMDPPSEDSEAAESRAQSAQEPAVAQAVVEEAVATEAEEEEEGAKQAGKGAEAEGGDNSEQLSSSSASTKSAKSSSEASAAASKEALQAVILSLPRYHCENPASCRSPTLSTDTLRKRLYRIGLNLFNINPDKGIQFLISRGFIPDTPIGVAHFLLQRKGLSRQMIGEFLGNSKKQFNRDVLDCVVDEMDFSNMELDEALRKFQAHIRVQGEAQKVERLIEAFSQRYCMCNPEVVQQFHNPDTIFILAFAIILLNTDMYSPNIKPDRKMMLEDFIRNLRGVDDGADIPRELVVGIYERIQQKELKSNEDHVTYVTKVEKSIVGMKTVLSMPHRRLVCCSRLFEVTDVNKLQKQAAHQREVFLFNDLLVILKLCPKKKSSFTYTFCKAVGLLGMRFHLFENEYYSHGITLATPLSGSEKKQVLHFCALGSDEMQKFVEDLKESIAEVTELEQIRIEWELEKQQGTKTLSVRSAGAQGDPQSKQGSPTAKREAMAGEKAAESSGEVSIHNRLQTSQHSPKLGVERGAPAPSPPTSPPPLPPDPQPSPLREQPPPLPLPPPTPPGTLVQCQQIVKVIVLDKPCLARMEPLLSQALSCYASSSSDSCGSTPLRGPGSPVKVIHQPPLPPPPPPYNHPHQFCPPGSMLLRRRYSSGSRSLV
[1]
  binding: binds

B4: PURA (protein, UniProt P42669 1-321)
chain: MADRDSGSEQGGAALGSGGSLGHPGSGSGSGGGGGGGGGGGGSGGGGGAPGGLQHETQELASKRVDIQNKRFYLDVKQNAKGRFLKIAEVGAGGNKSRLTLSMSVAVEFRDYLGDFIEHYAQLGPSQPPDLAQAQDEPRRALKSEFLVRENRKYYMDLKENQRGRFLRIRQTVNRGPGLGSTQGQTIALPAQGLIEFRDALAKLIDDYGVEEEPAELPEGTSLTVDNKRFFFDVGSNKYGVFMRVSEVKPTYRNSITVPYKVWAKFGHTFCKYSEEMKKIQEKQREKRAACEQLHQQQQQQQEETTAATLLLQGEEEGEED
[1]
  binding: binds

B5: PURB (protein, UniProt O35295 1-324)
chain: MADGDSGSERGGGGGGGGGPGGFQPAPRGGGGGGGGPGGEQETQELASKRLDIQNKRFYLDVKQNAKGRFLKIAEVGAGGSKSRLTLSMAVAAEFRDSLGDFIEHYAQLGPSSPEQLAAGAEEGGGPRRALKSEFLVRENRKYYLDLKENQRGRFLRIRQTVNRGGGGFGGGPGPGGLQSGQTIALPAQGLIEFRDALAKLIDDYGGDEDELAGGPGGGAGGPGGGLYGELPEGTSITVDSKRFFFDVGCNKYGVFLRVSEVKPSYRNAITVPFKAWGKFGGAFCRYADEMKEIQERQRDKLYERRGGGSGGGDESEGEEVDED
[1]
  binding: binds
